Patent US10584350B2, “Structurally modified COI1” (Board of Trustees of Michigan State University, priority 2016, dated 2020)

Tested on: male fertility
Experiment: Fertility of transgenic plants (complementation of male sterile COI1-30)
Assay type: in vivo, Arabidopsis

B1: COI1A384V: modified Arabidopsis thaliana COI1 protein with valine at position 384 (SEQ ID NO:2); also names transgenic plants expressing it (protein, listed as Arabidopsis thaliana)
chain: MEDPDIKRCKLSCVATVDDVIEQVMTYITDPKDRDSASLVCRRWFKIDSETREHVTMALCYTATPDRLSRRFPNLRSLKLKGKPRAAMFNLIPENWGGYVTPWVTEISNNLRQLKSVHFRRMIVSDLDLDRLAKARADDLETLKLDKCSGFTTDGLLSIVTHCRKIKTLLMEESSFSEKDGKWLHELAQHNTSLEVLNFYMTEFAKISPKDLETIARNCRSLVSVKVGDFEILELVGFFKAAANLEEFCGGSLNEDIGMPEKYMNLVFPRKLCRLGLSYMGPNEMPILFPFAAQIRKLDLLYALLETEDHCTLIQKCPNLEVLETRNVIGDRGLEVLAQYCKQLKRLRIERGADEQGMEDEEGLVSQRGLIALAQGCQELEYMVVYVSDITNESLESIGTYLKNLCDFRLVLLDREERITDLPLDNGVRSLLIGCKKLRRFAFYLRQGGLTDLGLSYIGQYSPNVRWMLLGYVGESDEGLMEFSRGCPNLQKLEMRGCCFSERAIAAAVTKLPSLRYLWVQGYRASMTGQDLMQMARPYWNIELIPSRRVPEVNQQGEIREMEHPAHILAYYSLAGQRTDCPTTVRVLKEPI
fertile lines (10 of 12 lines analyzed, COI1-30-null background): 83%
fertility penalty (number of developed siliques, seeds per silique) (compared with wild-type plants): No fertility penalty
